The results in this text go back to the supplement of paper PMC10849652.

Amino acid sequences for entries named in this document (tags omitted). A change or cut given only in a name is not applied to a line headed by its entry.
UniProt P15144: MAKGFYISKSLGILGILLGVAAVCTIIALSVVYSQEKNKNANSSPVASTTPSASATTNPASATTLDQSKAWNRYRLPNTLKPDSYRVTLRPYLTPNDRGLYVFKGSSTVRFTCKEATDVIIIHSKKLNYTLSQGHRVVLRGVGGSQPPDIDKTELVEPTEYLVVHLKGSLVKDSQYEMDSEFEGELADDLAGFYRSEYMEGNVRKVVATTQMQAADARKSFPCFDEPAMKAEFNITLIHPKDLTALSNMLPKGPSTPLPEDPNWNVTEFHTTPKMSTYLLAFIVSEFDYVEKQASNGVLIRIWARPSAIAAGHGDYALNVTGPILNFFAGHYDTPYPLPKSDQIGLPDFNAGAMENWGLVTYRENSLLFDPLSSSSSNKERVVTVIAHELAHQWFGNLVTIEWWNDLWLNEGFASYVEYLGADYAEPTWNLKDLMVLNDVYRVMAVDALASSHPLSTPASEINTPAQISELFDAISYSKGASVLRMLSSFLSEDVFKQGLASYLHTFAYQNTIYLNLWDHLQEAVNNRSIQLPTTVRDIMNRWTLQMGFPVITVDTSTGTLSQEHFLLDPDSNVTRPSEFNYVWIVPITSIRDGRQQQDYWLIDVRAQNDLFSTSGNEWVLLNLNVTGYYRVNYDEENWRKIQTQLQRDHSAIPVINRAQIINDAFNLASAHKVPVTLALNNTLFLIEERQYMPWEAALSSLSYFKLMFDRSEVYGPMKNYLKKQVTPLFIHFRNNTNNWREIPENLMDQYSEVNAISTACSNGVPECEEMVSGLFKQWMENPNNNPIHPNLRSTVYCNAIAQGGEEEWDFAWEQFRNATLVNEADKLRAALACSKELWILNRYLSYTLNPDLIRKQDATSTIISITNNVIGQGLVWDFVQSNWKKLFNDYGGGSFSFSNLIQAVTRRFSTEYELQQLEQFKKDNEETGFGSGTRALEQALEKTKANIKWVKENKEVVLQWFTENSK
UniProt P30837: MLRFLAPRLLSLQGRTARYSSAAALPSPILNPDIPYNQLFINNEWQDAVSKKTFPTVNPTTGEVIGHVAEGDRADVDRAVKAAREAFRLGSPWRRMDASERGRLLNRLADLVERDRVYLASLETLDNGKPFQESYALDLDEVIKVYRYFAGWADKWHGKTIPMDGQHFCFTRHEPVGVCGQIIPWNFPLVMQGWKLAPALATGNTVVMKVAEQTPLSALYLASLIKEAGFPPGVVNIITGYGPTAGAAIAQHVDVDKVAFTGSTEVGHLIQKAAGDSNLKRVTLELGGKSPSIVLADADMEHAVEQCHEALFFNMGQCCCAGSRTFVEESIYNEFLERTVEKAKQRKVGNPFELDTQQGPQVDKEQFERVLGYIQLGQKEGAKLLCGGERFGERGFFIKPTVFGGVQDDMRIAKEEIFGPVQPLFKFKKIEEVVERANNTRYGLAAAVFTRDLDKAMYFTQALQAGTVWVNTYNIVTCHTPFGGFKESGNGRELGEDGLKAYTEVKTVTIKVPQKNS
UniProt Q8TCU4: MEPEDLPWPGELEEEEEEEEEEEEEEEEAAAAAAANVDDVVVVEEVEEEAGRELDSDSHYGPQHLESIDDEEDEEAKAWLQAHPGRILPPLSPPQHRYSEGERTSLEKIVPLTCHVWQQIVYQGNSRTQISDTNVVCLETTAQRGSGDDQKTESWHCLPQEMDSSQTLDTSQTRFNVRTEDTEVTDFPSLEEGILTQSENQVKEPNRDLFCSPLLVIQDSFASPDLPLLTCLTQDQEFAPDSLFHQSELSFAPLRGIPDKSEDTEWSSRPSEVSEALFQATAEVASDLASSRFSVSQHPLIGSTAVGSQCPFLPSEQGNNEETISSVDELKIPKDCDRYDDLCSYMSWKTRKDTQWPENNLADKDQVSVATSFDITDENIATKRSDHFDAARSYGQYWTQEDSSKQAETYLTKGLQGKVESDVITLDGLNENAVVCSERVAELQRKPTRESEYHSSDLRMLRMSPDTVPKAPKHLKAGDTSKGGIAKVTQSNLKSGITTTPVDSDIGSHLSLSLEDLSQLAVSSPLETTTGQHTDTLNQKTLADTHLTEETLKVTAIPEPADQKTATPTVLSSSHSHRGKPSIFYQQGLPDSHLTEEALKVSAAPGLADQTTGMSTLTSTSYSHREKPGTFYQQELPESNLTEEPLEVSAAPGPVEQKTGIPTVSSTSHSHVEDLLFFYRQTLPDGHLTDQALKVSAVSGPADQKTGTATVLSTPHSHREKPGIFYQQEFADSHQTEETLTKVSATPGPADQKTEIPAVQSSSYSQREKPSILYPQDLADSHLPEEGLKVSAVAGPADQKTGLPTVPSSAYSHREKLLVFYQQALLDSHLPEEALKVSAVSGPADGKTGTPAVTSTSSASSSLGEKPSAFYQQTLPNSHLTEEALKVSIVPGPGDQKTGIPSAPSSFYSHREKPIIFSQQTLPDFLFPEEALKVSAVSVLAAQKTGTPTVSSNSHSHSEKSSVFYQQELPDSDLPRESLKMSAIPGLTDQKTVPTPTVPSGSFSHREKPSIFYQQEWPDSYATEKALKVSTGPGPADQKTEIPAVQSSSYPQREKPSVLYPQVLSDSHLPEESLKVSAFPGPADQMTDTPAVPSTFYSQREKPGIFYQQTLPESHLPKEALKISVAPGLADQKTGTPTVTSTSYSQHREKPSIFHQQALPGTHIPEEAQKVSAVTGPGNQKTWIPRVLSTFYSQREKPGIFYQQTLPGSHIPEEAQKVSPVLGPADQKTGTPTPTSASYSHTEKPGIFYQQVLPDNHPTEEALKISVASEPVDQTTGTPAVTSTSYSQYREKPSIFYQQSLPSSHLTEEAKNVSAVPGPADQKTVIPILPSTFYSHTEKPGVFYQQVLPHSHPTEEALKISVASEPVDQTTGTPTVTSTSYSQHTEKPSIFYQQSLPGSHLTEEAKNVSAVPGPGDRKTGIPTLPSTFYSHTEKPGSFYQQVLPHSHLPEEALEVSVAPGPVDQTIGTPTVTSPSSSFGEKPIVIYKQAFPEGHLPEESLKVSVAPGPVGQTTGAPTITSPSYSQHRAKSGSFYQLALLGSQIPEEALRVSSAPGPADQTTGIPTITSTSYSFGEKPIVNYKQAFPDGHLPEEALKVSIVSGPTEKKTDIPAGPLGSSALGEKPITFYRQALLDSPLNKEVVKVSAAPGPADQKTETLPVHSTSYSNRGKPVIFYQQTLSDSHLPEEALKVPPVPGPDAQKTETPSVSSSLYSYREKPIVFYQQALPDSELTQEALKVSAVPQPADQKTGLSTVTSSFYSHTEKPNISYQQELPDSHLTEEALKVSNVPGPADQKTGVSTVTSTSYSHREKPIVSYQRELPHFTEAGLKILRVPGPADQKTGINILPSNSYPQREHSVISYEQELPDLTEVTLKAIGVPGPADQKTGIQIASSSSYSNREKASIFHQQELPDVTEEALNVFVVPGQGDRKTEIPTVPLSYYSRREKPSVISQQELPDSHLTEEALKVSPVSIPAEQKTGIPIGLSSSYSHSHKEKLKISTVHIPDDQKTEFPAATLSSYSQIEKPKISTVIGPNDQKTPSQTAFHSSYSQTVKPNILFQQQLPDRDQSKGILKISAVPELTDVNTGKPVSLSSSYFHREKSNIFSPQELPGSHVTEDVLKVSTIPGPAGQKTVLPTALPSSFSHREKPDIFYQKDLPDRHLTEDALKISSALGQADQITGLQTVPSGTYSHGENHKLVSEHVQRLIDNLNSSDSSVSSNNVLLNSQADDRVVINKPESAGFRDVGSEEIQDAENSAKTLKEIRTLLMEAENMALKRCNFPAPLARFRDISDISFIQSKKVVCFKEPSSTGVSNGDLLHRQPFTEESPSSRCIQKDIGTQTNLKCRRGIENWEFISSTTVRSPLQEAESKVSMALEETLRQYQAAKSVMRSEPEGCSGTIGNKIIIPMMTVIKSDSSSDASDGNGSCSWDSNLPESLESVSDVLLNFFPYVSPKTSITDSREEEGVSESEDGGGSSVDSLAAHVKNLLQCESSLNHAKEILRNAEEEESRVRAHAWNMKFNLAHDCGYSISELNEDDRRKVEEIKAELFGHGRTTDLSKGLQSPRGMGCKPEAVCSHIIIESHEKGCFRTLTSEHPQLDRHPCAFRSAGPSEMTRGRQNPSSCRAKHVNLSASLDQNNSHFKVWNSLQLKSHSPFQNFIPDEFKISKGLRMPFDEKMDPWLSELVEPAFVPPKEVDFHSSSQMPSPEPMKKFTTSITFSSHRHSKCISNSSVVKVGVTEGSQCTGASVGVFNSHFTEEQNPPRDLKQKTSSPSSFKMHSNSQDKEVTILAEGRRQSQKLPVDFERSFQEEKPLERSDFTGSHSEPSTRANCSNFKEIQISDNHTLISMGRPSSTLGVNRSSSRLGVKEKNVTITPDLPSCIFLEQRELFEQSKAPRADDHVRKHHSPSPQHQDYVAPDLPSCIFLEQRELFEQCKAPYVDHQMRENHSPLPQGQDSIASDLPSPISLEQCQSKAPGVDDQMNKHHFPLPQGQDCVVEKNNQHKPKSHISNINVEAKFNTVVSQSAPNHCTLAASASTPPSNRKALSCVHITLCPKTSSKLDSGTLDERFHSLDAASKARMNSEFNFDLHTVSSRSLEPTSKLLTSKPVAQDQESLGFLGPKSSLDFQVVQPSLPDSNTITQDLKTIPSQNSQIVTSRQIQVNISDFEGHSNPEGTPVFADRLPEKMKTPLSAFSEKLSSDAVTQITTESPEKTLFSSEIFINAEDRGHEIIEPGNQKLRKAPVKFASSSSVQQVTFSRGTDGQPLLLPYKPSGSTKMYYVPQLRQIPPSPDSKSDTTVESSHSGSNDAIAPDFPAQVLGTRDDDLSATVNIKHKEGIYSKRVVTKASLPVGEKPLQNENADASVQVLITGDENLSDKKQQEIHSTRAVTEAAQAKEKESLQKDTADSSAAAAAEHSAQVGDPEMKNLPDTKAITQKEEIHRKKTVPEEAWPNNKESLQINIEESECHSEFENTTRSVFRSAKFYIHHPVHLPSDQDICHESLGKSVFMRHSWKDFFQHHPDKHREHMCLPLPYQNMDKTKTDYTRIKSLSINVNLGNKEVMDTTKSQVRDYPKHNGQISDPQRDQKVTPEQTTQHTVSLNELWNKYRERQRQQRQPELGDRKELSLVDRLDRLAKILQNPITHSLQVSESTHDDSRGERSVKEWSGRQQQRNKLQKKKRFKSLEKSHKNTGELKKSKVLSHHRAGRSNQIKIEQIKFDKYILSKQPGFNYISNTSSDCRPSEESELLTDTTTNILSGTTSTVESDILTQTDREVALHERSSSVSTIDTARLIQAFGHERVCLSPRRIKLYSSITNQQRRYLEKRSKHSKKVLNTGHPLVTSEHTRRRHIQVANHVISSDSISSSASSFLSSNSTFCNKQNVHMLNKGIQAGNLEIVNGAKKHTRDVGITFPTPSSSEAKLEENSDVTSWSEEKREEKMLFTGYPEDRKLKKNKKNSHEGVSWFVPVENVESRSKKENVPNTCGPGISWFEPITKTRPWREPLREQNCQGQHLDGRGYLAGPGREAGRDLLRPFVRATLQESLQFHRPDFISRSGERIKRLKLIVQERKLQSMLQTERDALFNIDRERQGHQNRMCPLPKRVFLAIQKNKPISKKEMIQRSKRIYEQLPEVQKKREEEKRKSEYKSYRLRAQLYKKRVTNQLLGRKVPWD
UniProt P54886: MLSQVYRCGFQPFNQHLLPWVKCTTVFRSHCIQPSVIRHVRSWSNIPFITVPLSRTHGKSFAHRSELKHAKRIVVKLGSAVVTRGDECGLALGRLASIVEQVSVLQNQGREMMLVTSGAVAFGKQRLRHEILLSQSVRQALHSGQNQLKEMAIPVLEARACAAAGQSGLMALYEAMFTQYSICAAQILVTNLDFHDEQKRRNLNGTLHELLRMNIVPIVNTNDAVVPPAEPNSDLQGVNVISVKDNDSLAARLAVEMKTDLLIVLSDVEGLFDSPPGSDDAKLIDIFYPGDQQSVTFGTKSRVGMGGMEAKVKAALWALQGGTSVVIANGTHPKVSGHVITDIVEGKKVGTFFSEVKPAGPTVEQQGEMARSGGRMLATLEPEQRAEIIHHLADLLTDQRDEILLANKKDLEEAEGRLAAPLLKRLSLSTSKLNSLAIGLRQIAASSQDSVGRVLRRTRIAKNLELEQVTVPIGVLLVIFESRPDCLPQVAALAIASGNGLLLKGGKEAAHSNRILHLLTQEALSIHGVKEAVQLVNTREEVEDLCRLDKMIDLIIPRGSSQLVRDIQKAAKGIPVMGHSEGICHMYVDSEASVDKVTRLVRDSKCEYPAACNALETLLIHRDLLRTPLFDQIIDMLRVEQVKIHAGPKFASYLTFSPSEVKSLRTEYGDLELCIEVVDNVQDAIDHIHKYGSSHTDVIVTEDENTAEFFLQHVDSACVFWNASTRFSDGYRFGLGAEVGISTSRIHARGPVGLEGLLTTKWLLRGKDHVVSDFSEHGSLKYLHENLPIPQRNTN
UniProt P53680: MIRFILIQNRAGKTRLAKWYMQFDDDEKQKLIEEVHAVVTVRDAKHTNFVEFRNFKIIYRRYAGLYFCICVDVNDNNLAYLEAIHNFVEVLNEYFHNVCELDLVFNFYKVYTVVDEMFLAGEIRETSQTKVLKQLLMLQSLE

This is one part of the list.

Compound in one assay: CC(C)C1=C2N=C(C=C(N2N=C1)NCC3=CC=CC=C3)NCCCCCCN
The assay is described as follows: log2 fold change, soluble protein after heating vs DMSO (PISA); higher = thermal stabilisation; K562 lysate, 10 uM; active = over 0.2 and 3.5 SD of the protein, either way, in both replicates (recomputed). In outline: (§1)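 A 30 min treatment with 10 μM compound was applied to crude K562 extract at 1 mg/mL protein in PBS pH 7.4 with 1 mM MgCl2. Heating for 3 min spanned 48°C-58°C, after which aliquots were pooled, adjusted to 0.5% NP-40 at 4°C and spun at 21,000xg for 90 min. TMTpro 16plex LC-MS/MS of the supernatant, with channel sums equalised, gave values recorded as log-two fold change in thermal stability against solvent controls, from duplicates.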
In the case of ANKRD54 (UniProt Q6NXT1), the log2 fold change was inactive: 0.044.

In the case of ALDH6A1 (UniProt Q02252), the log2 fold change is inactive: 0.008.

As for ALKBH3 (UniProt Q96Q83), the log2 fold change is inactive: -0.042.

With AMD1 (UniProt P17707), the log2 fold change was inactive: -0.054.

As to ANPEP (UniProt P15144), the log2 fold change is inactive: -0.019.

For ANXA11 (UniProt P50995), the log2 fold change is inactive: 0.034.

As to ALDH1A1 (UniProt P00352), the log2 fold change was inactive: -0.029.

As to ALDH1B1 (UniProt P30837), the log2 fold change was inactive: 0.056.

On to ANK1 isoform 14 (UniProt P16157), for which the log2 fold change was inactive: 0.002.

Take AP3S1 (UniProt Q92572): the log2 fold change is inactive: 0.021.

For ANKRD28 (UniProt O15084), the log2 fold change was inactive: 0.017.

In the case of ALS2 (UniProt Q96Q42), the log2 fold change was inactive: 0.21.

Consider ANTXR2 isoform 4 (UniProt P58335), for which the log2 fold change is inactive: -0.034.

As to ANAPC4 isoform 3 (UniProt Q9UJX5), the log2 fold change is inactive: -0.001.

Turning to ALMS1 (UniProt Q8TCU4), the log2 fold change was inactive: 0.028.

AKT1S1 isoform 3 (UniProt Q96B36): the log2 fold change is inactive: 0.013.

Take ALDH18A1 (UniProt P54886): the log2 fold change was inactive: -0.001.

Consider AP2S1 (UniProt P53680), for which the log2 fold change is inactive: -0.013.

Turning to AP3D1 isoform 5 (UniProt O14617), the log2 fold change is inactive: -0.007.

For AP1B1 (UniProt Q10567), the log2 fold change was inactive: -0.012.

For ALG2 (UniProt Q9H553), the log2 fold change is inactive: -0.022.

In the case of ALDH2 (UniProt P05091), the log2 fold change is inactive: 0.199.

With ANP32B (UniProt Q92688), the log2 fold change was inactive: -0.004.

In the case of AP1G2 (UniProt O75843), the log2 fold change is inactive: -0.121.

Consider ANGEL2 (UniProt Q5VTE6), for which the log2 fold change is inactive: 0.189.

With ANKRD13A (UniProt Q8IZ07), the log2 fold change was inactive: -0.007.

Take ALDH1L2 (UniProt Q3SY69): the log2 fold change is inactive: 0.006.

On to ALAD (UniProt P13716), for which the log2 fold change was inactive: -0.011.

For the target AP3B2 isoform 4 (UniProt Q13367), the log2 fold change is inactive: -0.006.

Consider ANAPC2 (UniProt Q9UJX6), for which the log2 fold change was inactive: -0.008.

Consider ALDH1A2 (UniProt O94788), for which the log2 fold change was inactive: 0.015.

Consider ANXA3 (UniProt P12429), for which the log2 fold change is inactive: 0.015.

With ANKRD27 (UniProt Q96NW4), the log2 fold change was inactive: 0.032.

In the case of ANAPC10 (UniProt Q9UM13), the log2 fold change is inactive: 0.182.

Regarding ALG1 (UniProt Q9BT22), the log2 fold change was inactive: 0.036.

Compound in the next assay: CC1=C(C(CC(=O)N1)C2=CC=C(C=C2)C(F)(F)F)C(=O)NC3=C(C=C4C(=C3)C=NN4)F
The assay is described as above. In outline:
as §1
For ANKRD54 (UniProt Q6NXT1), the log2 fold change is inactive: 0.003.

With ALDH6A1 (UniProt Q02252), the log2 fold change is inactive: -0.088.

For ALKBH3 (UniProt Q96Q83), the log2 fold change was inactive: 0.044.

Take AMD1 (UniProt P17707): the log2 fold change was inactive: 0.019.

With ANPEP (UniProt P15144), the log2 fold change is inactive: 0.104.

As to ANXA11 (UniProt P50995), the log2 fold change was inactive: -0.031.

As for ALDH1A1 (UniProt P00352), the log2 fold change was inactive: 0.

ALDH1B1 (UniProt P30837): the log2 fold change was inactive: -0.024.

In the case of ANK1 isoform 14 (UniProt P16157), the log2 fold change was inactive: -0.011.

As to AP3S1 (UniProt Q92572), the log2 fold change is inactive: -0.061.

As to ANKRD28 (UniProt O15084), the log2 fold change was inactive: -0.002.

For ALS2 (UniProt Q96Q42), the log2 fold change is inactive: -0.034.

As to ANTXR2 isoform 4 (UniProt P58335), the log2 fold change was inactive: 0.003.

Consider ANAPC4 isoform 3 (UniProt Q9UJX5), for which the log2 fold change is inactive: 0.013.

As to ALMS1 (UniProt Q8TCU4), the log2 fold change was inactive: -0.108.

Regarding AKT1S1 isoform 3 (UniProt Q96B36), the log2 fold change is inactive: -0.028.

Consider ALDH18A1 (UniProt P54886), for which the log2 fold change is inactive: -0.02.

Turning to AP2S1 (UniProt P53680), the log2 fold change is inactive: -0.04.

As to AP3D1 isoform 5 (UniProt O14617), the log2 fold change was inactive: -0.014.

AP1B1 (UniProt Q10567): the log2 fold change was inactive: -0.031.

Take ALG2 (UniProt Q9H553): the log2 fold change was inactive: 0.017.

In the case of ALDH2 (UniProt P05091), the log2 fold change was inactive: -0.013.

For ANP32B (UniProt Q92688), the log2 fold change is inactive: -0.006.

For AP1G2 (UniProt O75843), the log2 fold change was inactive: -0.109.

In the case of ANGEL2 (UniProt Q5VTE6), the log2 fold change was inactive: 0.027.

As for ANKRD13A (UniProt Q8IZ07), the log2 fold change was inactive: 0.05.

On to ALDH1L2 (UniProt Q3SY69), for which the log2 fold change is inactive: 0.029.

Regarding ALAD (UniProt P13716), the log2 fold change was inactive: 0.011.

Regarding AP3B2 isoform 4 (UniProt Q13367), the log2 fold change was inactive: 0.008.

Turning to ANAPC2 (UniProt Q9UJX6), the log2 fold change was inactive: -0.011.

Regarding ALDH1A2 (UniProt O94788), the log2 fold change is inactive: -0.016.

As for ANXA3 (UniProt P12429), the log2 fold change is inactive: 0.023.

Turning to ANKRD27 (UniProt Q96NW4), the log2 fold change was inactive: 0.033.

For the target ANAPC10 (UniProt Q9UM13), the log2 fold change was inactive: -0.007.

With ALG1 (UniProt Q9BT22), the log2 fold change is inactive: 0.042.
